Reference: the supplement of paper PMC12819154, “High-throughput peptide-centric local stability assay extends protein–ligand identification to membrane proteins, tissues and bacteria” (Nature Structural & Molecular Biology, 2025)
Some of the results follow. Small differences around the control level are noise.

Sequences of proteins named here, by UniProt entry; tags and fusion partners are left off. A change or cut given only in a name is not applied to a line headed by its entry.
UniProt Q9CQX0: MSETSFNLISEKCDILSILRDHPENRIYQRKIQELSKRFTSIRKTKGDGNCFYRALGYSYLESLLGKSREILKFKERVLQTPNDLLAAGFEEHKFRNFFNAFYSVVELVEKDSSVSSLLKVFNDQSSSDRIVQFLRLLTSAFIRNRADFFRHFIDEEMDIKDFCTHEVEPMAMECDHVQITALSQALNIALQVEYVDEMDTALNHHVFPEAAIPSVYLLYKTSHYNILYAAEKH
UniProt Q9CQJ8: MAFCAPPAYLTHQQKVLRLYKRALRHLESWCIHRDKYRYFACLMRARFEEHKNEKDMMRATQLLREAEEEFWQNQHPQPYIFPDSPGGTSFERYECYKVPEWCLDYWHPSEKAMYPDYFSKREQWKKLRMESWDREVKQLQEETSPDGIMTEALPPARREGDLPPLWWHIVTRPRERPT
UniProt Q9CR16, whole entry: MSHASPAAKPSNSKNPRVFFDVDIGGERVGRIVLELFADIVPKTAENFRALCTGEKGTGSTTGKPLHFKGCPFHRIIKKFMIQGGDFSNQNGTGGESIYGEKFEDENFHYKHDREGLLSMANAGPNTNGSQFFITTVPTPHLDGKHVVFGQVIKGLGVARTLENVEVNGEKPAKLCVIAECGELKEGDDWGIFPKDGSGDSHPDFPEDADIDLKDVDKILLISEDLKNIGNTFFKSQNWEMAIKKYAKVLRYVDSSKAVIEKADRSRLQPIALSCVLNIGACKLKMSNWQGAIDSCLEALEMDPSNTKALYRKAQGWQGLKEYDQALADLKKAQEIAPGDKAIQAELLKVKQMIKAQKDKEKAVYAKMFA

What follows are targets tested with CN[C@@H]1C[C@H]2O[C@@](C)([C@@H]1OC)n1c3ccccc3c3c4c(c5c6ccccc6n2c5c31)C(=O)NC4 [staurosporine] (assay: log2 fold change of tryptic peptide abundance, ligand vs vehicle (limited proteolysis) (log2 ratio); higher = more trypsin-susceptible (destabilized)). Conditions: ligand concentration: 20 uM; sample: mouse liver crude lysate; replicate design: treated separately.

Target | log2 fold change
UniProt Q9CQX0 (peptide sequence: CDILSILR, peptide start residue: 13) | -0.396
UniProt Q9CQJ8 (peptide sequence: YFACLMR, peptide start residue: 39) | -0.15
UniProt Q99N57 (peptide sequence: AAHTEDINACTLTTSPR, peptide start residue: 628) | -0.165
UniProt Q9CR16 (peptide sequence: EYDQALADLKK, peptide start residue: 322) | 0.174
